Experimental data as given in paper PMC9004249.
Changes are numbered by the printed parent chain. For at least one entry, the source does not settle the construct or the ends of the probe. At least one verdict was read from the data and is not stated in words by the source. Where a protein sequence is shown, tags need not be part of it.

Assays:
Assay in all cases: EMSA
Details in all cases: EMSA: 30 min at room temperature, 15% glycerol before loading, 5% native gel in TAE (40 mM Tris, 20 mM acetic acid, 1 mM EDTA) at 4 C, 80 V, EtBr stain; recombinant protein; residues 1-135
[1] = target: T1, CueR_M101R1 (M101C, MTSSL spin-labeled) M101C,C129A,C130A (Escherichia coli) (UniProt P0A9G4)
T1 sequence (looked up): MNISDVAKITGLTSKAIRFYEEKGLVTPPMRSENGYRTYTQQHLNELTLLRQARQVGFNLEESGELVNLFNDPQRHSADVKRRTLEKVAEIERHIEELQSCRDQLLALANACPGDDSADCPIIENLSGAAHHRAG

[2] = target: T2, CueR_A16R1 (A16C, MTSSL spin-labeled) A16C,C129A,C130A (Escherichia coli) (UniProt P0A9G4)
T2 sequence (looked up): T1 sequence (looked up) with A16C, C101M

[3] = target: T3, CueR_G57R1 (G57C, MTSSL spin-labeled) G57C,C129A,C130A (Escherichia coli) (UniProt P0A9G4)
T3 sequence (looked up): T1 sequence (looked up) with G57C, C101M

Measured: binding result

TTGACCTTCCCCTTGCTGGAAGGTTTA (double strand) [copA promoter 27 bp]
binds: all assays above
